Test results from PubChem BioAssay AID652054 (National Center for Advancing Translational Sciences (NCATS), 2013).
The campaign covered roughly 360,000 compounds. About 9,100 (2.5%) were called active. This list was built around the results that the source calls inconclusive (neither active nor inactive); the mix of calls is not that of the screen. No stated cut-off is given here; in the data, active means max response below about -50%; inconclusive means no clear call, values can overlap the other calls; inactive means above that.

Amino acid sequences for entries named in this document (tags omitted).
UniProt P35462, whole entry, looked up: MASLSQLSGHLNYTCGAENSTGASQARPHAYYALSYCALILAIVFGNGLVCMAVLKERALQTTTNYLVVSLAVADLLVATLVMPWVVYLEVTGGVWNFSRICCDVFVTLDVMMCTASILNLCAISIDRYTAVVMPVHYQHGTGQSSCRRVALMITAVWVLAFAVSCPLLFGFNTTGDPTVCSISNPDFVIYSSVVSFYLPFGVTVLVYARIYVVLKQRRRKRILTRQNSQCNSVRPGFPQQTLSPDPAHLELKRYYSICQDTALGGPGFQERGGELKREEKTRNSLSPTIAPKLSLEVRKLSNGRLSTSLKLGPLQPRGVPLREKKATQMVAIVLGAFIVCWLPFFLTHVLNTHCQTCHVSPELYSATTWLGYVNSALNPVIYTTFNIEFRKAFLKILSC

The compounds below were run against D(3) dopamine receptor (Homo sapiens) (UniProt P35462) (assay: qHTS of D3 Dopamine Receptor Antagonist: qHTS). Conditions: D3R cells, DiscoveRx beta-arrestin luminescence, antagonist mode; stronger effect = lower value.
Procedure, shortened: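 Cells plated overnight at 1500 cells/well, then exposed to library compounds with dopamine controls for 90 minutes at 37 degrees C. DiscoveRx reagent added for 30–60 minutes at room temperature; luminescence read, quantitative HTS format.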
On the % scale 0 is the no-effect control and ±100 the full control effect.

Max response, negative = inhibition, inconclusive:
COCCCNCCCOc1ccc(Cl)cc1Br -44.2%
CC1CCCCC1NC(=O)COc1ccc(C#N)cc1 (configuration not stated) -49.2%
O=C1NC[C@H](CCCCN2C[C@H](Cc3ccc(O)cc3)N(CC3CCCCC3)C(=O)C2=O)N(Cc2ccccc2)C1=O -37.8%
Cc1nc(N2CCN(Cc3ccc4c(c3)OCO4)CC2)c2oc3ccccc3c2n1 -41.6%
O=C(CC(SCCO)c1ccc([N+](=O)[O-])cc1)c1ccco1 (configuration not stated) -30.7%
O=C(NCCN1CCOCC1)/C(=C/c1ccc(F)cc1)NC(=O)c1ccccc1 -31.7%
O=S(=O)(NC1CCc2ccccc21)c1ccccc1 (configuration not stated) -38.9%
O=C1CC(/C=C/c2ccccn2)=Nc2ccccc2N1 -43.1%
CN(C)c1ccc(C(CNC(=O)c2ccc(F)cc2)c2c[nH]c3ccccc23)cc1 (configuration not stated) -39.3%
Cc1cc(C)c2sc(N(CCN(C)C)C(=O)c3ccc4ccccc4c3)nc2c1 -45.8%
COc1ccc(N(C(=O)c2snc(C(N)=O)c2N)C(C(=O)NC2CCCCC2)c2ccc(F)cc2)c(OC)c1 (configuration not stated) -31.5%
Cc1[nH]c(=S)[nH]c(=O)c1Cc1c(O)ccc2ccccc12 -46.6%
COc1cccc(N(C(=O)c2ccn[nH]2)C2(C(=O)Nc3c(C)cccc3C)CCCCC2)c1 -48.4%
c1ccc(Cn2ncc3c(NCc4ccco4)ncnc32)cc1 -38%
O=C(NC1CCCCC1)N1CCN(C(=O)c2ccco2)CC1 -32%
CS(=O)(=O)Nc1ccccc1Oc1ccccc1 -46.3%
C=CCNC(=S)NNc1ncnc2sc3c(c12)CC(C)(C)OC3 -36.1%
N#Cc1c(N)oc(-c2ccco2)c1-c1ccco1 -30.2%
CCOc1ccc(-n2c(SCC(N)=O)nc3c([nH]c4ccccc43)c2=O)cc1 -42.9%
COc1ccc(Nc2nnc(SCC(=O)N3CCCC3)s2)cc1 -31.7%
O=C(Nc1cccc(S(=O)(=O)N2CCCCC2)c1)c1ccc(N2CCCC2=O)cc1 -34%
CCCCOc1ccc(C(=O)CCN2CCOCC2)cc1 -48.3%
COc1ccc(NC(=O)C2CCC(=O)N2S(=O)(=O)c2ccc(C)cc2)cc1Cl (configuration not stated) -40.2%
O=C(C/C=N/OCc1ccc(F)cc1Cl)c1cnc(-c2ccccc2)s1 -47%
CCN(CC)CCCN(C(=O)c1cccc(C)c1)c1nc(-c2ccc(OC)cc2)cs1 -38.7%
CN(CC(=O)Nc1ccc(S(=O)(=O)N2CCCC2)cc1)Cc1ccc(Cl)c(Cl)c1 -37.6%
O=C(CSc1ncc(-c2ccc(F)cc2)n1Cc1ccco1)Nc1ccc2c(c1)OCO2 -30.7%
COc1cc2c(O)c3c(c(-c4ccc5c(c4)OCO5)c2cc1OC)C(=O)OC3 -31.5%
CCOC(=O)CNC(=O)N(C)[C@H]1C[C@H]2c3[nH]c4ccccc4c3CCN2C[C@H]1[C@H](C)O -36.8%
CC(C(=O)NC1CCCC1)N1CCN(S(=O)(=O)c2ccc(C(C)(C)C)cc2)CC1 (configuration not stated) -36.6%
CN1CCN(C(=S)c2ccc(N(C)C)cc2)CC1 -47.2%
Cn1cc(CN2CCN(Cc3ccc4c(c3)OCO4)CC2)c(-c2ccccc2F)n1 -36.5%

Three entries drawn at random from the list so far:
Max response, negative = inhibition, inconclusive:
CCN(CC)CCCN(C(=O)c1cccc(C)c1)c1nc(-c2ccc(OC)cc2)cs1 -38.7%
O=C(NC1CCCCC1)N1CCN(C(=O)c2ccco2)CC1 -32%
COc1cccc(N(C(=O)c2ccn[nH]2)C2(C(=O)Nc3c(C)cccc3C)CCCCC2)c1 -48.4%

Next part:

Max response, negative = inhibition, active:
Cc1cc(C)c(C(=O)CC(=O)c2ccccc2Cl)c(O)c1 -63.9%
COc1ccc(C(=S)N2CCN(C)CC2)cc1 -73.9%
O=C1CCCN1CCCNCC(=O)N1c2ccccc2Sc2ccccc21 -53.3%
Cc1ccc(C2C(C(=O)c3cc4ccccc4o3)=C(O)C(=O)N2CCN2CCOCC2)o1 (configuration not stated) -55.8%
O=C(CO/N=C1\CCCc2nonc21)Nc1ccc(Br)cc1 -82.8%
O=C(NC1CCN(Cc2ccccc2)CC1)c1ccccc1OCc1ccccc1Cl -105%
COc1ccc(C(C)(C)C)cc1NC(=O)COC(=O)c1cnc(C)cn1 -64.7%
CCOC(=O)c1c(NC(C)=O)sc2c1CCC(C=O)=C2Sc1ccccc1 -58.2%
FC(F)(F)c1ccc(Cl)c(NC(=S)N/N=C/c2ccccc2Cl)c1 -65.9%
CCCn1nc([N+](=O)[O-])c(C(C#N)c2nc3ccccc3o2)c(Cl)c1=O (configuration not stated) -61%

Max response, negative = inhibition, inactive:
CC(C)CC1NC(=S)N(C2CCCCC2)C1=O (configuration not stated) 3.09%
COc1ccccc1CSc1nc2c(c(=O)n(C)c(=O)n2C)n1C 12.6%
O=[N+]([O-])c1cc(Cl)ccc1NCCNc1ncc(C(F)(F)F)cc1Cl -13.2%
C/C(=N/NC(N)=S)c1ccc(Br)s1 -10.8%
Cc1noc(C)c1COC(=O)c1ccc2ccccc2n1 -5.14%
O=C(OCC(=O)C12CC3CC(CC(C3)C1)C2)c1ccc(O)cc1O -11.3%
CCCCn1c(N)c(N(CCOC)C(=O)c2cc(CC)c(C)s2)c(=O)[nH]c1=O -0.569%
Cc1c(C(=O)N2c3ccccc3Sc3ccccc32)cccc1[N+](=O)[O-] -15.1%
O=C(OC(C(=O)NCC1CCCO1)c1ccccn1)c1cccs1 (configuration not stated) 2.09%
Cc1ccc(-c2cc(-c3ccccc3)[nH]c(=S)c2C#N)cc1 -13%
CSc1nc(SCC(=O)NCc2ccco2)c2c3c(sc2n1)COC(C)(C)C3 -9.82%
COCc1ccc(C(=O)NC2CC(C)(C)Cc3c2cnn3-c2ccc(OC)cc2)o1 (configuration not stated) 2.06%
O=C(CCSc1nc(-c2ccco2)cc(C(F)(F)F)n1)N1CCN(c2ccccc2)CC1 41.1%
CCOCC(=O)Nc1ccc(-c2cn3cccnc3n2)cc1 -26.8%
CCCc1nc(-c2cc3ccc(C)cc3[nH]c2=O)no1 -23.7%
